The supplement of paper PMC6411743
± gives the standard deviation of the averaged measurements. The entries are a selection whose mix differs from that of the whole data set.

Columns and labels:
Assay in all cases: NP40-soluble protein abundance relative to vehicle (solubility fold change) (ratio); higher = more soluble protein in presence of AMP-PNP
[1] = target: T1, UniProt O14966 and related entries
T1 sequence (whole entry): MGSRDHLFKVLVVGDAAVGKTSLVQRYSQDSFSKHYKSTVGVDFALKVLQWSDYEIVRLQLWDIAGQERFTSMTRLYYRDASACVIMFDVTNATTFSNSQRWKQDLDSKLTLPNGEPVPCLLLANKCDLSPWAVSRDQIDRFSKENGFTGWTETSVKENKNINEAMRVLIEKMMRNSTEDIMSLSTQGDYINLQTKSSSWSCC
Outline: (§1)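 Eight concentrations, 0.1 to 10 mM, were tested on Jurkat crude lysate for 10 min at room temperature and then 3 min at 37 °C, in three independent experiments. The lysate was solubilised with 0.8% NP40 and benzonase, ultracentrifuged, and the supernatant TMT-labelled for LC-MS/MS. Each value is the fold change against the detergent-processed vehicle in its own replicate, from vsn-normalised intensities.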

UniProt O15091 = target: T2, UniProt O15091
T2 sequence (whole entry): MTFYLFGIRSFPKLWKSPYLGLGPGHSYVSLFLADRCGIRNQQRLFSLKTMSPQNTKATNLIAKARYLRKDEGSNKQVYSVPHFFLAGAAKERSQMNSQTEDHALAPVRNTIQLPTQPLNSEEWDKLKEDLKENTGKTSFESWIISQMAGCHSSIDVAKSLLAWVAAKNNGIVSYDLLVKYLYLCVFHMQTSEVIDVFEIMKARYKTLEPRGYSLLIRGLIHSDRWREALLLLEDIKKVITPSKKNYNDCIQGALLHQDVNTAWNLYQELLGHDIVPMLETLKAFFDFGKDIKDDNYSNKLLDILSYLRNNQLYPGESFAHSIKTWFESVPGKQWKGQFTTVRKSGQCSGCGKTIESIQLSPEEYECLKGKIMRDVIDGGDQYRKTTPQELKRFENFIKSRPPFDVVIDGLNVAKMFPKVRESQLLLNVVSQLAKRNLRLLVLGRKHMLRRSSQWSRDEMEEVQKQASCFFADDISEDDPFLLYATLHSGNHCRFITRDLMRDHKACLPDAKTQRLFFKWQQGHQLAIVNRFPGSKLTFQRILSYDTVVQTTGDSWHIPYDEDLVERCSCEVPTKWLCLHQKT
Outline: as §1

[2] = target: T3, UniProt O15173 and related entries
T3 sequence (whole entry): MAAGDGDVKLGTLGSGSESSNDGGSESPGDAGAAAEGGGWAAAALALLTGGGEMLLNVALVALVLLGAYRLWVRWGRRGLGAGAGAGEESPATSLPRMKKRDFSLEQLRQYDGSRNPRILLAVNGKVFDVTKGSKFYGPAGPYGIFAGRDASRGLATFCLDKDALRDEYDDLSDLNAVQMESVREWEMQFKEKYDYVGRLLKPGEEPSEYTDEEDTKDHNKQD
Outline: as §1

[3] = target: T4, UniProt O15530 and related entries
T4 sequence (whole entry): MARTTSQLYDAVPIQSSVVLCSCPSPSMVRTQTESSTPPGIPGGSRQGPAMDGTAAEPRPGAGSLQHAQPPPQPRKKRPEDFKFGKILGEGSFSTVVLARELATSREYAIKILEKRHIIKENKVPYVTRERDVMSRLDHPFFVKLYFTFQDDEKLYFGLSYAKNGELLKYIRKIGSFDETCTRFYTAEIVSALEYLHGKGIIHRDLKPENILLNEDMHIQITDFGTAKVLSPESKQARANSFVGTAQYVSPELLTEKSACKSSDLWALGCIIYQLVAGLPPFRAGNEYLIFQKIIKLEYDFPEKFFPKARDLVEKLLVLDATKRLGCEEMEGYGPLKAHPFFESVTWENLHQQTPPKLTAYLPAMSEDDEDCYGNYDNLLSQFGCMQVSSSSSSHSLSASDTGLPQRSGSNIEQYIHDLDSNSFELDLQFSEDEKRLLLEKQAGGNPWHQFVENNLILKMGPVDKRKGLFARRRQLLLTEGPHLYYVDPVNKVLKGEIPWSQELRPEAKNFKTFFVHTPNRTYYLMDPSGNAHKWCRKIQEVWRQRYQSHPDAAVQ
Outline: as §1

[4] = target: T5, UniProt O43310 and related entries
T5 sequence (whole entry): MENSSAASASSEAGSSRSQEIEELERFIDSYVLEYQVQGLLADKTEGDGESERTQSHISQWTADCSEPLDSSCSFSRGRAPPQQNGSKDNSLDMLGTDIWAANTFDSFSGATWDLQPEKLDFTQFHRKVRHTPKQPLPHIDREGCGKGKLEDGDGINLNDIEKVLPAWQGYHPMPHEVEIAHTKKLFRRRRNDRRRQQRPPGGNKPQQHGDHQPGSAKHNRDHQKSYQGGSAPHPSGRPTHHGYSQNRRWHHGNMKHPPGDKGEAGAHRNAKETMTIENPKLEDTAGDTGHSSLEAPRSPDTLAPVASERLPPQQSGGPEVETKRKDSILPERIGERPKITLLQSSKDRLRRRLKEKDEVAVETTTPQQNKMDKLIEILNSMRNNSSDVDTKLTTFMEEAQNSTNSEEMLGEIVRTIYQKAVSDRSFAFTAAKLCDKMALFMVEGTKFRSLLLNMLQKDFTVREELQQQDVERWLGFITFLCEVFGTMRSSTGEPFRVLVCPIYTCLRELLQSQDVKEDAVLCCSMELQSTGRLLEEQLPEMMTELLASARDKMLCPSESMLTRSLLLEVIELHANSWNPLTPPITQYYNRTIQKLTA
Outline: as §1

`Nc1ncnc2c1ncn2[C@@H]1O[C@H](COP(=O)(O)OP(=O)(O)NP(=O)(O)O)[C@@H](O)[C@H]1O` [adenylyl imidodiphosphate] showed an NP40-soluble protein abundance ([1]; concentration: 6mM) of 0.993 ± 0.019, an NP40-soluble protein abundance ([1]; concentration: 8mM) of 0.996 ± 0.028 and an NP40-soluble protein abundance ([1]; concentration: 10mM) of 1.01 ± 0.016. The NP40-soluble protein abundance (UniProt O15091; concentration: 1mM) was 0.994 ± 0.028, the NP40-soluble protein abundance (UniProt O15091; concentration: 2mM) was 1.01 ± 0.03 and the NP40-soluble protein abundance (UniProt O15091; concentration: 4mM) was 1.03 ± 0.033. For the same molecule, the NP40-soluble protein abundance (UniProt O15091; concentration: 6mM) was 1.03 ± 0.02, the NP40-soluble protein abundance (UniProt O15091; concentration: 8mM) was 1 ± 0.018 and the NP40-soluble protein abundance (UniProt O15091; concentration: 10mM) was 1.042 ± 0.0031. It also gave an NP40-soluble protein abundance ([2]; concentration: 1mM) of 0.959 ± 0.037, an NP40-soluble protein abundance ([2]; concentration: 2mM) of 1 ± 0.078 and an NP40-soluble protein abundance ([2]; concentration: 4mM) of 0.971 ± 0.014. It also gave an NP40-soluble protein abundance ([2]; concentration: 6mM) of 1.02 ± 0.079, an NP40-soluble protein abundance ([2]; concentration: 8mM) of 1.02 ± 0.033 and an NP40-soluble protein abundance ([2]; concentration: 10mM) of 0.993 ± 0.035. It also gave an NP40-soluble protein abundance ([3]; concentration: 1mM) of 0.966 ± 0.043, an NP40-soluble protein abundance ([3]; concentration: 2mM) of 0.994 ± 0.061 and an NP40-soluble protein abundance ([3]; concentration: 4mM) of 0.991 ± 0.086. It also gave an NP40-soluble protein abundance ([3]; concentration: 6mM) of 0.998 ± 0.07, an NP40-soluble protein abundance ([3]; concentration: 8mM) of 0.979 ± 0.096 and an NP40-soluble protein abundance ([3]; concentration: 10mM) of 1.01 ± 0.069. For the same molecule, the NP40-soluble protein abundance ([4]; concentration: 1mM) was 1.06 ± 0.045, the NP40-soluble protein abundance ([4]; concentration: 2mM) was 1.07 ± 0.062 and the NP40-soluble protein abundance ([4]; concentration: 4mM) was 1.07 ± 0.063. It also gave an NP40-soluble protein abundance ([4]; concentration: 6mM) of 1.04 ± 0.041.
